From patent US9456972B2, “Niacin-peptide having skin whitening activity and use for same” (priority 2011, dated 2016)
Part of at least one peptide drawing is inferred or uncertain, most often the ends. Some results were stated once for a whole list of compounds, not compound by compound. Peptide text beside a SMILES is read from it. * marks the point of attachment. Nicotinoyl = O=C(c1cccnc1)*

Experiments:
[1] = Heat stability of niacin-peptides at 40° C.; assay type: physicochemical; conditions: 100 μg/ml in 50 mM Tris-HCl (pH 8.0), until 60 days
TRP2 = assay: RT-PCR of melanogenesis gene expression in α-MSH-treated B16F10 cells; assay type: cell-based, mouse; conditions: 20 μg/ml α-MSH plus 1, 10 and 50 μg/ml, 4 days
[2] = system: TRP1 (tyrosinase-related protein-1); assay: as above; assay type: cell-based, mouse; conditions: 20 μg/ml α-MSH plus 1, 10 and 50 μg/ml, 4 days
[3] = system: Tyrosinase isolated from mushroom; assay: Tyrosinase activity decrease by niacin-peptides; assay type: biochemical; conditions: 100 ppm, 10 min at 37° C., compared with PS peptide and arbutin
[4] = system: microphtnalmia-associated transcription factor (MITF); assay: RT-PCR of melanogenesis gene expression in α-MSH-treated B16F10 cells; assay type: cell-based, mouse; conditions: 20 μg/ml α-MSH plus 1, 10 and 50 μg/ml, 4 days
B16F10 melanocytes = assay: Screening of niacin-peptides: inhibition of melanogenesis against α-MSH; assay type: cell-based, mouse; parameters: key to Screening value: Inhibition of melanogenesis against α-MSH: relative to absorbance (490 nm) of α-MSH-only positive control
Experimental: The present inventors screened skin whitening peptides by measuring decrease in melanogenesis using the niacin-peptide libraries prepared in Example 1. B16F10 melanocytes (the Korean Cell Line Bank) were incubated with α-MSH to induce melanogenesis and the inhibition of melanogenesis by the peptide libraries was analyzed. The mouse melanocytes were cultured at 37° C. in 5% CO2 atmosphere in DMEM supplemented with 10% FBS. The cells were seeded in each well of a 96-well plate (5×10^4 cells/well) and their attachment was verified. Afterwards, the control group was incubated with only solvent, the positive control group was incubated with 20 μg/ml of α-MSH and the other wells was incubated with 20 μg/ml of α-MSH and 10 ng/ml of peptides for 3 days.
The inhibition rates of melanogenesis by treatment of each peptide prepared in Example 1 were measured at UV 490 nm. The inhibition rates were calculated using the absorbance value of the positive control group incubated with only α-MSH as a standard, which are summarized in Table 1. The candidate peptides analyzed to show excellent screening results were selected and synthesized in a 100-μmole scale for further experiments. FIG. 1 represents the screening result of niacin-peptides.

Compound	loss of the peptides by heat [1]	expression of TRP-2 gene (mRNA, RT-PCR) (TRP2)	expression of TRP-1 gene (mRNA, RT-PCR) [2]	inhibition of tyrosinase (absorbance at 475 nm) [3]	expression of MITF gene (mRNA, RT-PCR) [4]	Screening value: Inhibition of melanogenesis against α-MSH (B16F10 melanocytes; 20 μg/ml α-MSH plus 10 ng/ml peptide, 3 days, UV 490 nm, α-MSH-only positive control as standard)	inhibition rate of melanogenesis (B16F10 melanocytes; α-MSH-induced melanocytes, compared with the control group (Table 1)) [%]
nicotinoyl-ET (N-terminal nicotinoyl; niacin-linked peptide)	no more than 10%	–	–	–	–	–	–
nicotinoyl-VS (N-terminal nicotinoyl; niacin-linked peptide)	no more than 10%	–	–	–	–	–	–
O=C(O)[C@H](CO)NC(=O)[C@@H]1CCCN1C(=O)c1cccnc1 [nicotinoyl-PS] (Nicotinoyl-Pro-Ser-OH)	no more than 10%	inhibit the expression	inhibit the expression	relatively excellent inhibition effects	inhibit the expression	0.56	44
